From the supplement of paper PMC12819154, “High-throughput peptide-centric local stability assay extends protein–ligand identification to membrane proteins, tissues and bacteria” (Nature Structural & Molecular Biology, 2025) come the findings set out here.

Protein sequences, listed by entry. Tags and fused reporters are not part of them. Lines headed by an entry give the natural chain unless they say otherwise; changes in a name come on top.
UniProt Q8VC30: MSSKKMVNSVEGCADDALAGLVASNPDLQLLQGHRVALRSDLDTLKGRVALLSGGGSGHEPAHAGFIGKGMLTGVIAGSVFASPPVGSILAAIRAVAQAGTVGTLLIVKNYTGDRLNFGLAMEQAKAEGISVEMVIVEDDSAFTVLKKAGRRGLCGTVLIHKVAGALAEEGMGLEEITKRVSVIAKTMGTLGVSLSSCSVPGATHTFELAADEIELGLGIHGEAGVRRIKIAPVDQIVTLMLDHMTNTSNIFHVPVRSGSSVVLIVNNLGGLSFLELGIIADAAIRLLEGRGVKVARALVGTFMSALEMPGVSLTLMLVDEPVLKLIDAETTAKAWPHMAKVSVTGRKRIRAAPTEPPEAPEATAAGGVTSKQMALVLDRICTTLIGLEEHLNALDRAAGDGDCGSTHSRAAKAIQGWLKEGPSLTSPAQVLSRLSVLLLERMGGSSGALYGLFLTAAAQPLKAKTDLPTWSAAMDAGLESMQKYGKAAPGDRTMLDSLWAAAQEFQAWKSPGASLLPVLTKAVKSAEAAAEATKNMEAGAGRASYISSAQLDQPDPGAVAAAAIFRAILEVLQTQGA
UniProt Q8K157: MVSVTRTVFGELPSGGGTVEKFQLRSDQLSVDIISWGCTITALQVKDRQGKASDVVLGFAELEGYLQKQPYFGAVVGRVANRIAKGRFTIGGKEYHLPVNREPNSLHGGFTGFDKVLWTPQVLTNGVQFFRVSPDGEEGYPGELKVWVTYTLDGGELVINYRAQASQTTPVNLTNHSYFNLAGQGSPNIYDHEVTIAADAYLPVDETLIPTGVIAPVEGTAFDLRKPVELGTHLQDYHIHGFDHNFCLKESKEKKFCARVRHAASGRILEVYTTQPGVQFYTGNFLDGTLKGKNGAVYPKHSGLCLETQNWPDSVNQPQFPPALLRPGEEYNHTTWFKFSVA
UniProt Q8R4H7: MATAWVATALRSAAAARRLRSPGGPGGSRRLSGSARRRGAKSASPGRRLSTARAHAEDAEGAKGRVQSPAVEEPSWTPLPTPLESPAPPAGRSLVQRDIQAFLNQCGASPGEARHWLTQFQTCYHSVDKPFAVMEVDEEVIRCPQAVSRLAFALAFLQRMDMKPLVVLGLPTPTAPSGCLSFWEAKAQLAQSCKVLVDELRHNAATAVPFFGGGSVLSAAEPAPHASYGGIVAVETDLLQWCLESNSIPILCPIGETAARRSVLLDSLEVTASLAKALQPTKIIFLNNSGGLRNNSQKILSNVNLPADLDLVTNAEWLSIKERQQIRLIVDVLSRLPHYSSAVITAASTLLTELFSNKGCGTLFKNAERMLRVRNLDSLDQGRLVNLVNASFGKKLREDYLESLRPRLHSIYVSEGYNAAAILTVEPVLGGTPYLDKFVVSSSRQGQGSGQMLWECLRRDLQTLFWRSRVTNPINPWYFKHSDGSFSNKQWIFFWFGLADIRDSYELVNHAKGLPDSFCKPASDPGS
UniProt Q8CHT0: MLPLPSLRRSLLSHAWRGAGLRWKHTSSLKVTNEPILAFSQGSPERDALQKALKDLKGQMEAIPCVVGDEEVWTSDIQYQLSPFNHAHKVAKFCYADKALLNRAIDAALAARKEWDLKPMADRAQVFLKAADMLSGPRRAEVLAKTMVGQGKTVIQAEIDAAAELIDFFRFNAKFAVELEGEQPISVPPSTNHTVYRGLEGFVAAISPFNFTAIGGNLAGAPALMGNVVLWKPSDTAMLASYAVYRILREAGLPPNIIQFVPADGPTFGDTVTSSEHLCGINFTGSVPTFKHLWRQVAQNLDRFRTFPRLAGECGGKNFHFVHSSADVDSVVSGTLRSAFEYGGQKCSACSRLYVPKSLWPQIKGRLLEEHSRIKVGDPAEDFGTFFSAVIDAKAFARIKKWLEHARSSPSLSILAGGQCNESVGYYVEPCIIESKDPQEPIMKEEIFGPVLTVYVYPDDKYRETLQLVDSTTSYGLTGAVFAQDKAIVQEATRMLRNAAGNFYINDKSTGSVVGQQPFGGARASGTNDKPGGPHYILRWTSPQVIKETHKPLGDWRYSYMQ
UniProt Q8R5A3: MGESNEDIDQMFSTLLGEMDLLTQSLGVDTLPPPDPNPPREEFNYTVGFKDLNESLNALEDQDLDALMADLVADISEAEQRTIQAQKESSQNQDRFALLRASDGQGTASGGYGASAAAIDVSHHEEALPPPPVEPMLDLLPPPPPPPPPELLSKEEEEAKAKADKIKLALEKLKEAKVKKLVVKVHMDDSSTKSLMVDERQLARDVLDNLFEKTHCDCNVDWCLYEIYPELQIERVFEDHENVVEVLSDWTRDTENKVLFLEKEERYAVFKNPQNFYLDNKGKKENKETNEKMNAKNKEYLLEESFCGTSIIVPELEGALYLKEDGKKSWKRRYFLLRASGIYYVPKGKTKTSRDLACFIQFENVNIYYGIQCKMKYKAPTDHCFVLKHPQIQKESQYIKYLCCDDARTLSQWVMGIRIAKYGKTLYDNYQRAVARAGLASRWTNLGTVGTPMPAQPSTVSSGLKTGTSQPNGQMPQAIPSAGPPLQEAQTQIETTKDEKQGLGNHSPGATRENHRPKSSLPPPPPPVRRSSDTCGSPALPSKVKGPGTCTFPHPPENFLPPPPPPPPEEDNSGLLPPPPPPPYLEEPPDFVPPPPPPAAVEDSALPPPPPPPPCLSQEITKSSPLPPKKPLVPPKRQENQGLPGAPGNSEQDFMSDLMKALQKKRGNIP
UniProt Q8K3K7: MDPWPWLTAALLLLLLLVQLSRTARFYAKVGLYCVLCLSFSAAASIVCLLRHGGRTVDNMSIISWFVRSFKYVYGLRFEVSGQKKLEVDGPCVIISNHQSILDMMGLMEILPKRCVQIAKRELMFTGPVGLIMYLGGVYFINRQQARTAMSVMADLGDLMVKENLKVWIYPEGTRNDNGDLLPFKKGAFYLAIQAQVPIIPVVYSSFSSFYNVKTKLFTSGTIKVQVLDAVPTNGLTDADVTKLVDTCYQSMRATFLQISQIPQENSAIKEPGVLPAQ
UniProt Q8K370: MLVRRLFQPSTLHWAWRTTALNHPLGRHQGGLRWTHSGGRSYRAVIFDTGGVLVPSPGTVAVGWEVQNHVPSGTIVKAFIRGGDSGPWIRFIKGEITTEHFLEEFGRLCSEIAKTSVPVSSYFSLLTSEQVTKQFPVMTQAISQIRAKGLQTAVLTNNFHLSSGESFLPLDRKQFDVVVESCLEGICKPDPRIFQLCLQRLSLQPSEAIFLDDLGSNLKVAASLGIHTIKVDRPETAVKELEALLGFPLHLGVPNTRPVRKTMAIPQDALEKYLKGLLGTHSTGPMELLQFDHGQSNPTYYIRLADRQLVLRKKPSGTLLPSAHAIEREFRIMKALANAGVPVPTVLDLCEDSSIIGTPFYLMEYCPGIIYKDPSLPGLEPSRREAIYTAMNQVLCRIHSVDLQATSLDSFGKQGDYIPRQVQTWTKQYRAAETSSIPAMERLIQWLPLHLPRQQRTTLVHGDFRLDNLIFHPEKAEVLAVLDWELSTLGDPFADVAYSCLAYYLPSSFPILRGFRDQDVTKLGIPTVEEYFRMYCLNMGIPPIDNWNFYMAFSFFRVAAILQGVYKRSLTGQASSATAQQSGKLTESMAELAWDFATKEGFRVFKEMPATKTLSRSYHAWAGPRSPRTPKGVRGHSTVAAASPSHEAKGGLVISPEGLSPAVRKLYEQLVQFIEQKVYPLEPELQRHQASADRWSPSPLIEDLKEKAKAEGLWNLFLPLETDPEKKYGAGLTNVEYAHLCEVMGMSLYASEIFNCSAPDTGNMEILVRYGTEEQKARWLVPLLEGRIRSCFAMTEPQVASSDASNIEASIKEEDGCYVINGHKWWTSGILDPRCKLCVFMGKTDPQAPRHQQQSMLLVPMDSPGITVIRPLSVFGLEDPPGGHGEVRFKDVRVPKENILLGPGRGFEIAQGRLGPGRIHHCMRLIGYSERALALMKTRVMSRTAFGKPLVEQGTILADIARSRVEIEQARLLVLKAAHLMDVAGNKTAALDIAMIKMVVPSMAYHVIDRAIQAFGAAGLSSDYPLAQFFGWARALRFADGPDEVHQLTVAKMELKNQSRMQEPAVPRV
UniProt Q8R2Y2: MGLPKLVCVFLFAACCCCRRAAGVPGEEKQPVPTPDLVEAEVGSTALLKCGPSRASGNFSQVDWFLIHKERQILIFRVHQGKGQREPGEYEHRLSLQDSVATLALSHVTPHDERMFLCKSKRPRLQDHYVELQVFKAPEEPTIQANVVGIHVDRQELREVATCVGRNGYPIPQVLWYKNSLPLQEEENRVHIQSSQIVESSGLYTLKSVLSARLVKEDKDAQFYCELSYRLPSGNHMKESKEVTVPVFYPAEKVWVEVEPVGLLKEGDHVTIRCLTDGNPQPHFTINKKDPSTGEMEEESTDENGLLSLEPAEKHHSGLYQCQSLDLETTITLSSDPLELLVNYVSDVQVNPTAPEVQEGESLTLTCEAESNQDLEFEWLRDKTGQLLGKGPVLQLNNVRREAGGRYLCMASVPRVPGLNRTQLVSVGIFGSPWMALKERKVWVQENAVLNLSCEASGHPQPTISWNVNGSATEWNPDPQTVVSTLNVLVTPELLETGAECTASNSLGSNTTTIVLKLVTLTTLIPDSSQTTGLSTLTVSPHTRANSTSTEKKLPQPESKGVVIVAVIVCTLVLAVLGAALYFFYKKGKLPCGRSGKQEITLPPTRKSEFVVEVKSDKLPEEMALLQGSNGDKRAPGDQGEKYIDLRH
UniProt Q8K124: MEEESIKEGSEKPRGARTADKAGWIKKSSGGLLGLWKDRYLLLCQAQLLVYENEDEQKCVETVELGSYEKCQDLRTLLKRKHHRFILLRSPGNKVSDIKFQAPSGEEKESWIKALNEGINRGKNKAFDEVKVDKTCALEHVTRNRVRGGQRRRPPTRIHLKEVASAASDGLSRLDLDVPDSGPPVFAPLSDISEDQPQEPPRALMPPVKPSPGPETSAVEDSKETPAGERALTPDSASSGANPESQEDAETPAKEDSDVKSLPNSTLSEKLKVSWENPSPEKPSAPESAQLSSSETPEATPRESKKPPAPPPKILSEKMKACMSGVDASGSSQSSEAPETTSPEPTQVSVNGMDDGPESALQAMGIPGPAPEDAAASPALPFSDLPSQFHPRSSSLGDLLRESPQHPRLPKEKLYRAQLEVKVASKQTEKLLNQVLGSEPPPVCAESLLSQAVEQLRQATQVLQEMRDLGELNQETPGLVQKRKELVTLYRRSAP
UniProt Q8CI59: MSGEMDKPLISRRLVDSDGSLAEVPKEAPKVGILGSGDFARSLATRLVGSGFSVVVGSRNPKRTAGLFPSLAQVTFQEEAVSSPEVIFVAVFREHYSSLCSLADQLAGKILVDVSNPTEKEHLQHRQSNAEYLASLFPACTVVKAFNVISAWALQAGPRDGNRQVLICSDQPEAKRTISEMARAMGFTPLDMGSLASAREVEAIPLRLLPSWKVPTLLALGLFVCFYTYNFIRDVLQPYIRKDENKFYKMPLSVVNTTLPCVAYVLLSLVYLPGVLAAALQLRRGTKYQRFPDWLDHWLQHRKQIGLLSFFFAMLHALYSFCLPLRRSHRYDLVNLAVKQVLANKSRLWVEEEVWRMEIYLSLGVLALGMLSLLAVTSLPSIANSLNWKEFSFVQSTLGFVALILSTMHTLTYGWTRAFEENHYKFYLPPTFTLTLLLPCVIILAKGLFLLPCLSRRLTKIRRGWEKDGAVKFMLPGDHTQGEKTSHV
UniProt Q8R1X6: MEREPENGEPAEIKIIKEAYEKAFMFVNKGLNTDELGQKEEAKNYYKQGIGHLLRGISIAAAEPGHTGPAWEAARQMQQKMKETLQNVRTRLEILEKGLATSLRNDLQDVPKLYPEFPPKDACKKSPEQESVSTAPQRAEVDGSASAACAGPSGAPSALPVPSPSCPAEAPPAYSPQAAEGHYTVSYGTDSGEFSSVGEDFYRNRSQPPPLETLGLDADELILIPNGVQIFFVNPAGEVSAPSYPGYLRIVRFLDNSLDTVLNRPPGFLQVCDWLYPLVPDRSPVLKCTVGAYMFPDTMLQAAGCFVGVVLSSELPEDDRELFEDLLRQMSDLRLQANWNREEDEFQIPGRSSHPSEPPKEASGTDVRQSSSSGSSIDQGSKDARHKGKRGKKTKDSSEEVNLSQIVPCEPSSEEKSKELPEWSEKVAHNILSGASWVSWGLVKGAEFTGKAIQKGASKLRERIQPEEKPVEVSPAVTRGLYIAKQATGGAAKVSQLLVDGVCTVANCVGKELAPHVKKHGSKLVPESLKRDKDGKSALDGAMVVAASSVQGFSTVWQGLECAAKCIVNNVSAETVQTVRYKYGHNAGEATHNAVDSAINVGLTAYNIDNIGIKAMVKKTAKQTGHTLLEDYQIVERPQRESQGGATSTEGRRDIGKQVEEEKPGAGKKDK
UniProt Q8R0J8: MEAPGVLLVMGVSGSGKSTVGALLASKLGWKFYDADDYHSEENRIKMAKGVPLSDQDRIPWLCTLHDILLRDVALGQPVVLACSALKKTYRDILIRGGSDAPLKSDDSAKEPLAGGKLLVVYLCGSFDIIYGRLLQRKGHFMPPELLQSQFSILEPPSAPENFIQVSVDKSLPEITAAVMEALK
UniProt Q8R033: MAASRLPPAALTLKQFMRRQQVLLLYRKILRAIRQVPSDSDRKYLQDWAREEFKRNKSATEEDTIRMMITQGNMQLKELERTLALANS

The other results are listed elsewhere or left out. Small differences around the control level are noise.

Compound in this assay: CN[C@@H]1C[C@H]2O[C@@](C)([C@@H]1OC)n1c3ccccc3c3c4c(c5c6ccccc6n2c5c31)C(=O)NC4 [staurosporine]
Briefly: log2 fold change of pooled soluble protein (PISA), ligand vs vehicle (log2 ratio); higher = more thermally stabilized. Conditions: ligand concentration: 20 uM; assay format: PISA pool 52.9/55.5/58.6 C.
UniProt Q8VC30: the “log2 fold change of pooled soluble protein” value (“log2 fold change” below) worked out at 0.0532.
Turning to UniProt Q8K4Z5, the “log2 fold change” value is 0.399.
To UniProt Q8CGF5 belongs 0.0421.
As to UniProt Q8K157, the “log2 fold change” value was -0.451.
In the case of UniProt Q8CHH9, the “log2 fold change” value is -0.0565.
The result for UniProt Q8K2Z2 reads 0.16; that for UniProt Q8R4H7, 0.184; that for UniProt Q8CHT0, -0.0748.
Turning to UniProt Q8K1N4, the “log2 fold change” value was -0.11.
To UniProt Q8VC48 belongs -0.0948; to UniProt Q8JZV7, 0.0351.
As for UniProt Q8R5A3, the “log2 fold change” value is 0.0336.
Turning to UniProt Q8R0X7, the “log2 fold change” value is -0.0381.
To UniProt Q8K3K7 belongs 0.07.
Regarding UniProt Q8VCH7, the “log2 fold change” value came out at 0.0877.
In the case of UniProt Q8K370, the “log2 fold change” value is -0.0228.
To UniProt Q8R081 belongs -0.000463; to UniProt Q8R0A0, -0.125; to UniProt Q8R2Y2, -0.0882.
UniProt Q8R0F8: the “log2 fold change” value is -0.00297.
Turning to UniProt Q8R1G2, the “log2 fold change” value is -0.0559.
To UniProt Q8K0R6 belongs -0.391.
On to UniProt Q8K274, for which the “log2 fold change” value came to 0.0554.
Consider UniProt Q8K124, for which the “log2 fold change” value was -0.331.
The result for UniProt Q8CHU3 reads 0.0227; that for UniProt Q8R121, 0.123.
To UniProt Q8CI59 belongs 0.0546; to UniProt Q8K327, 0.577.
UniProt Q8R5J9: the “log2 fold change” value is -0.134.
To UniProt Q8CI51 belongs -0.00198; to UniProt Q8K1E6, 0.101; to UniProt Q8R1X6, 0.189.
The result for UniProt Q8R4H2 reads -0.0304.
The result for UniProt Q8R0J8 reads -0.467; that for UniProt Q8R0P4, 0.0687.
UniProt Q8CGE8: the “log2 fold change” value is 0.0169.
Regarding UniProt Q8R033, the “log2 fold change” value was -0.195.
